# In PubChem BioAssay AID2417 (National Center for Advancing Translational Sciences (NCATS), 2010):
# About 4,300 (3.1%) of roughly 140,000 compounds were called active. The shares of active, inactive and inconclusive entries below differ from those in the screen.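 How the source made its calls: active means readout at or below -70, meaning at least 70% loss of cells showing the perinucleolar compartment, a nuclear body marking cancer cells; inconclusive means readout between -30 and a set limit; inactive means the rest.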
# Assay: High Content Assay for Compounds that inhibit the Assembly of the Perinucleolar Compartment;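 further: plate controls were DMSO wells for no effect and camptothecin positive control wells for full effect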
# Details: PC3M PTB-GFP, PNC prevalence imaging, 16 h; at 10 µM; active compounds read low
# Method in brief: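 PC3M cells stably expressing PTB-GFP, 750–1000 cells/well, treated 16 h at 37 °C with compound (23 nl of library stock), in duplicate. After paraformaldehyde fixation and Hoechst stain, imaged at 20x; PNC prevalence scored by image analysis.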
row,Structure (SMILES),"activity change (PNC), negative = inhibition"
1,CC1=NN(C(=O)c2ccc(Cn3cc(Br)c([N+](=O)[O-])n3)o2)C(O)(C(F)(F)F)C1 (configuration not stated),active: -114%
2,CC1(C)CC(=O)C2=C(C1)N(Cc1ccco1)C(=O)NC2(C(F)(F)F)C(F)(F)F,inconclusive: -37%
3,CN1CCc2c(sc(NC(=O)c3ccc(S(=O)(=O)N4CCOCC4)cc3)c2C(N)=O)C1,inconclusive: -54.4%
4,CSc1nc(-c2ccco2)nn1C(=O)Cc1ccccc1,inconclusive: -34.4%
5,O=C(NCCCCNC(=O)c1cccs1)c1cccs1,active: -114%
6,N#CC1=C(N)Oc2cc3c(cc2C1c1ccc(Cl)cc1)OCO3 (configuration not stated),inconclusive: -60.1%
7,CC1CCCCC1NC(=O)c1ccc(N2CCCC2=O)cc1 (configuration not stated),inconclusive: -37.2%
8,CC(=O)Nc1ccc2c(c1)N(C(=O)CN(C)C)c1ccccc1CC2,inactive: 19.3%
9,Cn1c(C(=O)NC2CCCCC2)cc2sccc21,inconclusive: -40%
10,CC(=O)c1c(C(C)=O)c(C)n(C2CCCCC2)c1C,inactive: -4.61%
11,Cc1c(C(=O)O)oc2c3c(ccc12)OCCO3,inconclusive: -46.8%
12,CC(C)CNC(=O)NC(=O)COC(=O)c1cccc(NS(=O)(=O)c2ccc(F)c(F)c2)c1,inconclusive: -60.3%
13,CN1C(=O)C(CC(=O)N2CCN(C(c3ccccc3)c3ccccc3)CC2)N(C)C1=O (configuration not stated),inconclusive: -55.4%
14,CN(Cc1ccccc1)S(=O)(=O)c1ccc(S(=O)(=O)N(Cc2ccc(F)cc2)C2CCCC2)cc1,inconclusive: -45.4%
15,Nc1nonc1-c1nc2ccccc2n1Cc1ccc(F)cc1,inconclusive: -47.5%
16,CCOC(=O)N1CCN(C(=O)c2ccc3c(=O)n(-c4ccc(F)cc4)c(=S)[nH]c3c2)CC1,inactive: 33%
17,Cc1ccc(-n2nnc3c(SCC(=O)NCc4ccco4)ncnc32)cc1,inactive: -6.78%
18,Nc1ccc2c(c1)sc1ccccc12,inactive: -27.4%
19,O=C(c1ccc(Br)cc1)c1cc([N+](=O)[O-])ccc1N1CCCCC1,inconclusive: -73.6%
20,Cc1ccc(S(=O)(=O)NCCCCCC(=O)N(C)C)cc1,inactive: 12.8%
21,COc1cc(OC)c(OC)cc1NC(=O)CC1COc2ccccc2O1 (configuration not stated),inconclusive: -51.7%
22,O=C(Cc1ccccc1)Nc1ccc(N2CCOCC2)cc1N1CCOCC1,inconclusive: -59%
23,CC(C)(C)NC(=O)Cn1nnc(-c2cccs2)n1,inconclusive: -66.6%

row,Structure (SMILES),"activity change (PNC), negative = inhibition"
1,Cc1nc2ccc(NC(=O)c3ccc(S(=O)(=O)N4CCOCC4)cc3)cc2s1,inactive: -2.03%
2,CCc1ccccc1NC(=O)c1nnn(CC(=O)Nc2ccccc2C)c1N,active: -102%
3,CC(=O)c1c(COC(=O)c2ccccc2)nc2ccccc2[n+]1[O-],inactive: 17.5%
4,C/C(=N\OC(=O)c1ccc(Cl)c(Cl)c1)c1sc(C)nc1C,inconclusive: -39.4%
5,COC(=O)c1cccnc1N1CCN(c2ccccc2F)CC1,inconclusive: -44.5%
6,Cc1cc(Nc2ccccc2)n(-c2cccc(Cl)c2)n1,active: -95.6%
7,COc1c(O)ccc(/C=C(\C#N)c2nc3ccccc3[nH]2)c1[N+](=O)[O-],inconclusive: -36.8%
8,COc1ccc(N/C(N)=N/c2nc(CSc3ccc(Cl)cc3)cc(=O)[nH]2)cc1,inactive: -24.5%
9,COc1cccc(N2C(=O)C3CCCN3C2c2ccc(Cl)cc2)c1 (configuration not stated),inconclusive: -32.8%
10,Clc1ccc(OCc2nc(-c3ccncc3)no2)c(Cl)c1,inactive: 38.2%
11,O=C(CSc1nnc(-c2ccc(F)cc2)c2ccccc12)Nc1c(F)cccc1F,inconclusive: -55%
12,COc1ccc(OC)c2sc(NC(=O)CCSc3ccccc3)nc12,active: -87.8%
13,COc1ccc2c(c1)C(SCC(=O)NCCc1ccccc1)CC(C)(C)O2 (configuration not stated),inconclusive: -44.5%
14,CCC(=O)N(CC(=O)Nc1sc(C)c(C)c1C(N)=O)C1CCCCC1,inconclusive: -35.7%
15,CCc1ccc2c(c1)C(=O)c1ccccc1C2=O,inconclusive: -43%
16,Cc1ccc2[nH]c3c(c2c1)CN(C(=O)CN1CCN(c2cccc(C)c2C)CC1)CC3,inconclusive: -41.3%
17,CCn1c2ccccc2c2cc(NC(=O)c3ccc([N+](=O)[O-])cc3)ccc21,inconclusive: -32.9%
18,Cc1cc(OC(=O)c2ccccc2)n(CCC#N)n1,inconclusive: -41.7%
19,Cc1ccc(CCNC(=O)C2CCC(CNc3c(N4CCC(C)CC4)c(=O)c3=O)CC2)cc1 (configuration not stated),inactive: 71.1%
20,Cc1[nH]nc2c1C(c1ccccc1)C1=C(CC(C)(C)CC1=O)N2 (configuration not stated),inactive: -19.3%
21,Cc1onc(-c2ccccc2Cl)c1C(=O)Nc1nnc(-c2ccc(Br)cc2)s1,inactive: -11.6%
22,CCCCN1C(=O)CC(Nc2ccc(CC)cc2)C1=O (configuration not stated),inconclusive: -49.2%
23,NC(=O)C(c1ccc(Cl)cc1)c1ccc(Sc2ccc(Cl)cc2)nn1 (configuration not stated),active: -93.3%

# Shown with bars between the fields: 2 of the compounds above.
row | Structure (SMILES) | activity change (PNC), negative = inhibition
21 | Cc1onc(-c2ccccc2Cl)c1C(=O)Nc1nnc(-c2ccc(Br)cc2)s1 | inactive: -11.6%
22 | CCCCN1C(=O)CC(Nc2ccc(CC)cc2)C1=O (configuration not stated) | inconclusive: -49.2%

# The list goes on.

row,Structure (SMILES),"activity change (PNC), negative = inhibition"
1,Cc1cccc(OCC(=O)Nc2ccccc2N2CCCCC2)c1,inactive: 0.791%
2,NC(=S)NNC(=O)Nc1cccc(Cl)c1,inconclusive: -55%
3,COc1ccc(C2C(C(=O)NCc3ccccc3)=C(C)Nc3ncnn32)cc1OC (configuration not stated),inconclusive: -54.8%
4,CC(OC(=O)c1cccs1)C(=O)NCc1ccc2c(c1)OCO2 (configuration not stated),inactive: -8.9%
5,O=C(Nc1ccccc1)c1ccc(NC2CCCCC2)c(S(=O)(=O)N2CCOCC2)c1,inactive: -12.9%
6,CCOC(=O)C1CCCN(CCC(=O)Nc2ccc3c(c2)CCC3)C1 (configuration not stated),inactive: -17.7%
7,CCOC(=O)C(NCc1ccccc1OC)(NC(C)=O)C(F)(F)F (configuration not stated),inconclusive: -38.5%
8,c1ccc2c(c1)ccc1nnc(-c3ccc4c(c3)OCO4)n12,inactive: -8.79%
9,O=C(Nc1cccc(Cl)c1)c1cc(S(=O)(=O)NCCc2ccc(Cl)cc2)ccc1F,inactive: -5.25%
10,O=C(Nc1ccc(NC(=O)c2ccc(S(=O)(=O)c3ccccc3)cc2)cc1)c1ccccc1,inconclusive: -39.7%
11,OC(CN1CCCCC1)CN(c1ccccc1)c1ccccc1 (configuration not stated),inconclusive: -57%
12,O=C(Oc1ccccc1)n1c(=S)oc2ccccc21,inconclusive: -40.8%
13,Cc1nn(Cc2cccc(C(=O)NC34CC5CC(CC(C5)C3)C4)c2)c(C)c1Br,inactive: 42.3%
14,Nc1ccc(N2CCOCC2)c(Cl)c1,inconclusive: -51.5%
15,N#Cc1nc(-c2cccs2)oc1NCCCN1CCOCC1,inactive: 19.4%
16,CCOc1cccc(-c2nnc(SCC(=O)Nc3cc(C)ccc3OC)n2N)c1,inactive: 3.45%
17,Cc1ccc(S(=O)(=O)N(C)Cc2ccc(C(=O)NN=C(CC(C)C)CC(C)C)cc2)cc1,inactive: 4.44%
18,CCN(N=Nc1cccc([N+](=O)[O-])c1)c1cccc([N+](=O)[O-])c1,inactive: 13.3%
19,Cc1nc(NCCO)c2nnn(Cc3ccccc3F)c2n1,active: -92.6%
20,Cc1nc2nc(-c3ccc(Cl)cc3)[nH]n2c(=O)c1C,inconclusive: -48.9%
21,CCOC(=O)COc1ccc([N+](=O)[O-])cc1,inactive: 14.3%
22,COC(=O)C1=C(C)NC2=C(C(=O)CC(C)(C)C2)C1c1cccc(C)n1 (configuration not stated),inconclusive: -37.2%
23,Cc1ccc(NC(=O)Cn2nc(C)c3ccccc3c2=O)c(C)c1,inconclusive: -32.9%

row,Structure (SMILES),"activity change (PNC), negative = inhibition"
1,O=C1CCC/C1=C/Nc1ccc2c(c1)OCO2,inconclusive: -41.9%
2,COCCn1c(=NC(=O)c2ccco2)sc2cc(C(=O)OC)ccc21,inconclusive: -37.5%
3,CCCCOC(=O)CCN1C(=O)/C(=C2\SC(=S)N(CCC(=O)OCCCC)C2=O)SC1=S,inconclusive: -38.7%
4,CN1CCN(CC(O)COCc2ccc3c(c2)OCO3)CC1 (configuration not stated),inconclusive: -43.8%
5,N#C/C(=C/c1ccc(N2CCOCC2)o1)C(=O)N1CCOCC1,inactive: 61.9%
6,Cc1nnc(NC(=O)c2ccc3c(c2)C(=O)N(CC2CCCO2)C3=O)s1 (configuration not stated),active: -90%
7,O=[n+]1cc(-c2ccc(Cl)cc2)n([O-])c2c1CCCCC2,inconclusive: -33.1%
8,Cc1cc(C)cc(-n2nnc(C(=O)NCc3ccc(Cl)cc3)c2N)c1,inconclusive: -53%
9,COc1ccc(OCCC(=O)Nc2cc(C)on2)cc1,inactive: 18.3%
10,COc1cccc(CN2CCN(C(=O)c3ccc(-c4ccccc4)cc3)CC2)c1,inactive: -4.44%
11,Cc1cc(NC(=O)COn2nnc3ccc(Cl)cc32)no1,inactive: -19.4%
12,CCC(C)NC(=O)c1c(N)n(/N=C/c2ccccn2)c2nc3ccccc3nc12 (configuration not stated),inconclusive: -70.3%
13,CCn1ncc(CNC(=O)C2(C)CC2(Br)Br)c1C (configuration not stated),inconclusive: -34.3%
14,O=C(CN(Cc1ccccc1)S(=O)(=O)c1ccccc1)N1CCOCC1,active: -101%
15,O=C(COc1ccc2ccccc2c1)NC1CC1,inactive: 59%
16,N#Cc1cn(CC(=O)N2CCCc3ccccc32)c2ccccc12,inactive: 65.9%
17,CC(C)(C)OC(=O)N[C@@H](Cc1c[nH]c2ccccc12)c1nnc(SCC(N)=O)o1,inconclusive: -34.5%
18,COCCCNC(=O)c1ccc(CS(=O)(=O)c2ccc(OC)cc2)o1,inconclusive: -58.7%
19,COc1ccc(OC)c(CN2CCCC(CO)C2)c1 (configuration not stated),inactive: 63.2%
20,Cc1sc2nc3c(C(=O)N4CCN(c5ccccn5)CC4)cccn3c(=O)c2c1C,inconclusive: -54.8%
21,Cc1ccc(OCCCC(=O)Nc2ccc(Br)cc2)cc1,inactive: 29.2%
22,COc1cccc(OCCCN2CCCCC2)c1,inconclusive: -45.5%
23,CN(C)CCC(=O)NCC1OCCc2ccccc21 (configuration not stated),inconclusive: -74.5%

# By substructure, the compounds so far with a tert-butyl group.
row,Structure (SMILES),"activity change (PNC), negative = inhibition"
23,CC(C)(C)NC(=O)Cn1nnc(-c2cccs2)n1,inconclusive: -66.6%
17,CC(C)(C)OC(=O)N[C@@H](Cc1c[nH]c2ccccc12)c1nnc(SCC(N)=O)o1,inconclusive: -34.5%

# 3 structures from above, sorted by length of the SMILES, largest number first:
row,Structure (SMILES),"activity change (PNC), negative = inhibition"
17,CC(C)(C)OC(=O)N[C@@H](Cc1c[nH]c2ccccc12)c1nnc(SCC(N)=O)o1,inconclusive: -34.5%
20,Cc1sc2nc3c(C(=O)N4CCN(c5ccccn5)CC4)cccn3c(=O)c2c1C,inconclusive: -54.8%
8,Cc1cc(C)cc(-n2nnc(C(=O)NCc3ccc(Cl)cc3)c2N)c1,inconclusive: -53%
